Source: PubChem BioAssay AID743121 (NCATS, 2013)
In all, the deposit lists about 26,000 reagents; this is an unselected part. 167 of all reagents (0.63%) count as active. 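Calls are per gene from RSA p-values that are not deposited; an individual active-marked siRNA can sensitise only weakly.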 The numbers tell different reagents against one gene apart. Further read-outs or replicates are left out here.

- Aim: 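Genes whose silencing strengthens cell killing by camptothecin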 (primary screen)
- System: MDA-MB-231 cells, a human breast cancer line
- Knock-down reagent: single siRNA against human genes, 20 nM siRNA (0.8 pmol per well)
- Timing: 120 h (drug added 48 h after transfection, read 72 h later)
- Conditions: camptothecin 20 nM (about EC30) for 72 h; vehicle 0.1% DMSO in parallel plates
- Detection: 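CellTiter-Glo ATP signal, scaled to control siRNA as percent viability; sensitisation given as log2 of untreated divided by camptothecin-treated viability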
- Direction: log2 vehicle/camptothecin viability: higher = stronger sensitisation to camptothecin; viability with camptothecin: higher = more viable cells
- Rule for the call: 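Each gene scored by redundant siRNA activity (RSA) over its individual siRNA ratios; a gene is called active at p < 0.001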

target gene | siRNA no. | log2 vehicle/camptothecin viability | viability with camptothecin (% of control) | Call
UBL3 (ubiquitin like 3) | 1 | -0.493 | 119 | inactive
UBL3 (ubiquitin like 3) | 2 | -0.412 | 94.2 | inactive
UBL3 (ubiquitin like 3) | 3 | -0.124 | 112 | inactive
UBL3 (ubiquitin like 3) | 4 | -0.0555 | 87.8 | inactive
TRERF1 (transcriptional regulating factor 1) | 1 | -0.0957 | 73 | inactive
TRERF1 (transcriptional regulating factor 1) | 2 | -0.053 | 39.2 | inactive
TRERF1 (transcriptional regulating factor 1) | 3 | -0.137 | 110 | inactive
PSTPIP2 (proline-serine-threonine phosphatase interacting protein 2) | 1 | -0.543 | 81.4 | inactive
PSTPIP2 (proline-serine-threonine phosphatase interacting protein 2) | 2 | -0.726 | 101 | inactive
PSTPIP2 (proline-serine-threonine phosphatase interacting protein 2) | 3 | -0.102 | 86.1 | inactive
PSTPIP2 (proline-serine-threonine phosphatase interacting protein 2) | 4 | -0.25 | 83.5 | inactive
STAR (steroidogenic acute regulatory protein) | 1 | 0.122 | 49.7 | inactive
STAR (steroidogenic acute regulatory protein) | 2 | -0.459 | 78.5 | inactive
STAR (steroidogenic acute regulatory protein) | 3 | -0.00759 | 86 | inactive
STAR (steroidogenic acute regulatory protein) | 4 | 0.0205 | 35 | inactive
MUSK (muscle associated receptor tyrosine kinase) | 1 | -0.0106 | 56.4 | inactive
MUSK (muscle associated receptor tyrosine kinase) | 2 | 0.0614 | 76.6 | inactive
MUSK (muscle associated receptor tyrosine kinase) | 3 | 0.282 | 87 | inactive
MUSK (muscle associated receptor tyrosine kinase) | 4 | 0.0378 | 108 | inactive
KNTC1 (kinetochore associated 1) | 1 | 0.109 | 102 | inactive
KNTC1 (kinetochore associated 1) | 2 | -0.0914 | 99.8 | inactive
KNTC1 (kinetochore associated 1) | 3 | -0.12 | 97.2 | inactive
JUNB (JunB proto-oncogene, AP-1 transcription factor subunit) | 1 | 0.069 | 89.2 | inactive
JUNB (JunB proto-oncogene, AP-1 transcription factor subunit) | 2 | -0.0643 | 103 | inactive
JUNB (JunB proto-oncogene, AP-1 transcription factor subunit) | 3 | -0.152 | 114 | inactive
JUNB (JunB proto-oncogene, AP-1 transcription factor subunit) | 4 | -0.309 | 111 | inactive
SORCS2 (sortilin related VPS10 domain containing receptor 2) | 1 | -0.349 | 44.9 | inactive
SORCS2 (sortilin related VPS10 domain containing receptor 2) | 2 | -0.312 | 107 | inactive
SORCS2 (sortilin related VPS10 domain containing receptor 2) | 3 | -0.263 | 59.1 | inactive
TRIP4 (thyroid hormone receptor interactor 4) | 1 | -0.285 | 66.9 | inactive
TRIP4 (thyroid hormone receptor interactor 4) | 2 | -0.0876 | 54.7 | inactive
TRIP4 (thyroid hormone receptor interactor 4) | 3 | -0.0261 | 72.9 | inactive
TRIP4 (thyroid hormone receptor interactor 4) | 4 | -0.389 | 106 | inactive
RELA (RELA proto-oncogene, NF-kB subunit) | 1 | -0.155 | 86.2 | inactive
RELA (RELA proto-oncogene, NF-kB subunit) | 2 | -0.437 | 45.1 | inactive
RELA (RELA proto-oncogene, NF-kB subunit) | 3 | -0.031 | 107 | inactive
RELA (RELA proto-oncogene, NF-kB subunit) | 4 | 0.695 | 28.2 | inactive
GH2 (growth hormone 2) | 1 | 0.168 | 79.7 | inactive
GH2 (growth hormone 2) | 2 | 0.204 | 74.2 | inactive
GH2 (growth hormone 2) | 3 | -0.258 | 71 | inactive
CHRNA3 (cholinergic receptor nicotinic alpha 3 subunit) | 1 | 0.00791 | 93.6 | inactive
CHRNA3 (cholinergic receptor nicotinic alpha 3 subunit) | 2 | 0.822 | 50 | inactive
CHRNA3 (cholinergic receptor nicotinic alpha 3 subunit) | 3 | 0.374 | 33.6 | inactive
CHRNA3 (cholinergic receptor nicotinic alpha 3 subunit) | 4 | -0.14 | 90.5 | inactive

Reformatted: 5 of the entries above
{"target gene": "STAR (steroidogenic acute regulatory protein)", "siRNA no.": 3, "log2 vehicle/camptothecin viability": -0.00759, "viability with camptothecin (% of control)": 86, "Call": "inactive"}
{"target gene": "STAR (steroidogenic acute regulatory protein)", "siRNA no.": 4, "log2 vehicle/camptothecin viability": 0.0205, "viability with camptothecin (% of control)": 35, "Call": "inactive"}
{"target gene": "MUSK (muscle associated receptor tyrosine kinase)", "siRNA no.": 1, "log2 vehicle/camptothecin viability": -0.0106, "viability with camptothecin (% of control)": 56.4, "Call": "inactive"}
{"target gene": "MUSK (muscle associated receptor tyrosine kinase)", "siRNA no.": 2, "log2 vehicle/camptothecin viability": 0.0614, "viability with camptothecin (% of control)": 76.6, "Call": "inactive"}
{"target gene": "MUSK (muscle associated receptor tyrosine kinase)", "siRNA no.": 3, "log2 vehicle/camptothecin viability": 0.282, "viability with camptothecin (% of control)": 87, "Call": "inactive"}

Continued.
target gene | siRNA no. | log2 vehicle/camptothecin viability | viability with camptothecin (% of control) | Call
PNCK (pregnancy up-regulated nonubiquitous CaM kinase) | 1 | -0.225 | 92.9 | inactive
PNCK (pregnancy up-regulated nonubiquitous CaM kinase) | 2 | -0.406 | 109 | inactive
PNCK (pregnancy up-regulated nonubiquitous CaM kinase) | 3 | -0.031 | 102 | inactive
PNCK (pregnancy up-regulated nonubiquitous CaM kinase) | 4 | -0.519 | 123 | inactive
KCND2 (potassium voltage-gated channel subfamily D member 2) | 1 | -0.547 | 79.8 | inactive
KCND2 (potassium voltage-gated channel subfamily D member 2) | 2 | 1.24 | 24.4 | inactive
KCND2 (potassium voltage-gated channel subfamily D member 2) | 3 | -0.502 | 79.8 | inactive
KCND2 (potassium voltage-gated channel subfamily D member 2) | 4 | -0.0757 | 74.9 | inactive
CFH (complement factor H) | 1 | -0.611 | 62.2 | inactive
CFH (complement factor H) | 2 | -0.0624 | 89.5 | inactive
CFH (complement factor H) | 3 | -0.496 | 114 | inactive
CFH (complement factor H) | 4 | -0.403 | 99.9 | inactive
EDA (ectodysplasin A) | 1 | 0.338 | 1.63 | inactive
EDA (ectodysplasin A) | 2 | -0.193 | 65.4 | inactive
EDA (ectodysplasin A) | 3 | -0.555 | 58.1 | inactive
EDA (ectodysplasin A) | 4 | -0.29 | 48.5 | inactive
CDK5R2 (cyclin dependent kinase 5 regulatory subunit 2) | 1 | 0.359 | 7.69 | inactive
CDK5R2 (cyclin dependent kinase 5 regulatory subunit 2) | 2 | -0.322 | 64.6 | inactive
CDK5R2 (cyclin dependent kinase 5 regulatory subunit 2) | 3 | -0.274 | 23.4 | inactive
CDK5R2 (cyclin dependent kinase 5 regulatory subunit 2) | 4 | -0.869 | 20.8 | inactive
PCDH20 (protocadherin 20) | 1 | -0.324 | 84.2 | inactive
PCDH20 (protocadherin 20) | 2 | -0.33 | 72.2 | inactive
PCDH20 (protocadherin 20) | 3 | 0.478 | 70.4 | inactive
PCDH20 (protocadherin 20) | 4 | -0.168 | 119 | inactive
